Assay results taken from PMC10667515.
These are yes or no findings as the source states them, for the method shown. In cells and extracts the contact can be indirect. Some entries that bind do so weakly or less than the wild type. For part of these data: Sequences can lack the tags named with a protein.

Amino acid sequences for entries named in this document (tags omitted).
UniProt O14980: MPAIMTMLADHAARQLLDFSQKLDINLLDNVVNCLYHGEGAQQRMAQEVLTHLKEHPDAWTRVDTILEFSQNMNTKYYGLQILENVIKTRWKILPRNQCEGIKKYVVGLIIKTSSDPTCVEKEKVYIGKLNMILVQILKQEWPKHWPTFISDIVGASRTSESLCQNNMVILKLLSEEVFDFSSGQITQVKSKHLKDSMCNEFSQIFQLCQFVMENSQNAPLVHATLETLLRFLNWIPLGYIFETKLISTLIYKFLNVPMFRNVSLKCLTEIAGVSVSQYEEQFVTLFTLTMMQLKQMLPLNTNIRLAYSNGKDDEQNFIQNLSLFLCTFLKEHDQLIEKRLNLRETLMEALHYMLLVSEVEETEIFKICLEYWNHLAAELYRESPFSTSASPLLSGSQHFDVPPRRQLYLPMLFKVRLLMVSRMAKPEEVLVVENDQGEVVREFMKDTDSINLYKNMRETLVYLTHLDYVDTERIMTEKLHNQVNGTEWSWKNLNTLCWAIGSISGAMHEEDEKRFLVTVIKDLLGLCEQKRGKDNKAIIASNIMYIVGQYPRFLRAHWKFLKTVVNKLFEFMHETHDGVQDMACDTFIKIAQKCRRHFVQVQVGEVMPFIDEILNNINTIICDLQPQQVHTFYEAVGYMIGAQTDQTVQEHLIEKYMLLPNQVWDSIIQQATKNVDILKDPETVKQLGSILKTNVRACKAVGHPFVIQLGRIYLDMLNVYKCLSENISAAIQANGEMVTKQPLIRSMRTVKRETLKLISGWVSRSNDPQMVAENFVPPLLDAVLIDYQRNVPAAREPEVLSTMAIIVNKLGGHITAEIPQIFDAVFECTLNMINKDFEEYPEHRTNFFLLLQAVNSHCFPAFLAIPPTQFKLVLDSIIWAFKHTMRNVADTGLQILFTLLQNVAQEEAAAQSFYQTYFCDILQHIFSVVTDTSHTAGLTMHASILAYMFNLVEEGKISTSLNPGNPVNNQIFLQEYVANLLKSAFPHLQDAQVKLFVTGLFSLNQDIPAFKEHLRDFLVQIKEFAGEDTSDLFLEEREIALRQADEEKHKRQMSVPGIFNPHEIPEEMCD

Columns and labels:
[1] = target: T1, ID1 (construct not told for the experiment) (UniProt P41134); experiment: co-IP; truncated mutants of ID1 (I1-I3) against STAT1 and of STAT1 (S1-S6) against ID1 (Supplementary Fig. 5c, d); cells not given; lysate with antibody at 4 °C overnight, Protein A/G Plus-Agarose
T1 sequence: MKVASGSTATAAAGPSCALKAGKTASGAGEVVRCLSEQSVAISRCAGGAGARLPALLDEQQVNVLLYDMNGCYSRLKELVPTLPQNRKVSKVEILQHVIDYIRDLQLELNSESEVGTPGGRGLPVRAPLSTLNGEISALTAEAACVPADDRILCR

[2] = target: T1, ID1 (construct not told for the experiment); experiment: co-IP; co-IPs among ID1, STAT1 and CRM1 (Supplementary Fig. 5f); cells and constructs not stated
[3] = target: STAT1 (construct not told for the experiment) (UniProt P42224); experiment: as above
[4] = target: STAT1 (construct not told for the experiment) (UniProt P42224); experiment: co-IP; STAT1 and CRM1 with or without ID1 (Fig. 6h); the legend does not name the method or the cells
[5] = target: STAT1 (construct not told for the experiment) (UniProt P42224); experiment: proximity ligation; cells not given; with or without ID1 ectopic expression (Fig. 6i); IFN-γ and leptomycin B 100 nM (Fig. 6j); Duolink kit
[6] = target: T2, ID1 truncated mutant I1 (amino acids 1-52) in pEGFP-C1 (UniProt P41134); experiment: co-IP; truncated mutants of ID1 (I1-I3) against STAT1 and of STAT1 (S1-S6) against ID1 (Supplementary Fig. 5c, d); cells not given; lysate with antibody at 4 °C overnight, Protein A/G Plus-Agarose
T2 sequence: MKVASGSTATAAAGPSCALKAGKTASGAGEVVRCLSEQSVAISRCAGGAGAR

[7] = target: T3, ID1 truncated mutant I2 (amino acids 53-104) in pEGFP-C1 (UniProt P41134); experiment: as above
T3 sequence: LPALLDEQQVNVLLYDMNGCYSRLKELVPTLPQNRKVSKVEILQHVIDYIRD

[8] = target: T4, ID1-GFP (full-length ID1 in pEGFP-C1) (UniProt P41134); experiment: co-IP; HEK 293T cells transfected with STAT1-DDK and ID1-GFP plasmids; lysate with antibody at 4 °C overnight, Protein A/G Plus-Agarose 2 h, immunoblot
T4 sequence: T1 sequence

[9] = target: T5, STAT1 (construct not told for the experiment), P42224; experiment: proximity ligation; cells not given; with or without ID1 ectopic expression (Fig. 6i); IFN-γ and leptomycin B 100 nM (Fig. 6j); Duolink kit; conditions: remark: other sources report otherwise
T5 chain: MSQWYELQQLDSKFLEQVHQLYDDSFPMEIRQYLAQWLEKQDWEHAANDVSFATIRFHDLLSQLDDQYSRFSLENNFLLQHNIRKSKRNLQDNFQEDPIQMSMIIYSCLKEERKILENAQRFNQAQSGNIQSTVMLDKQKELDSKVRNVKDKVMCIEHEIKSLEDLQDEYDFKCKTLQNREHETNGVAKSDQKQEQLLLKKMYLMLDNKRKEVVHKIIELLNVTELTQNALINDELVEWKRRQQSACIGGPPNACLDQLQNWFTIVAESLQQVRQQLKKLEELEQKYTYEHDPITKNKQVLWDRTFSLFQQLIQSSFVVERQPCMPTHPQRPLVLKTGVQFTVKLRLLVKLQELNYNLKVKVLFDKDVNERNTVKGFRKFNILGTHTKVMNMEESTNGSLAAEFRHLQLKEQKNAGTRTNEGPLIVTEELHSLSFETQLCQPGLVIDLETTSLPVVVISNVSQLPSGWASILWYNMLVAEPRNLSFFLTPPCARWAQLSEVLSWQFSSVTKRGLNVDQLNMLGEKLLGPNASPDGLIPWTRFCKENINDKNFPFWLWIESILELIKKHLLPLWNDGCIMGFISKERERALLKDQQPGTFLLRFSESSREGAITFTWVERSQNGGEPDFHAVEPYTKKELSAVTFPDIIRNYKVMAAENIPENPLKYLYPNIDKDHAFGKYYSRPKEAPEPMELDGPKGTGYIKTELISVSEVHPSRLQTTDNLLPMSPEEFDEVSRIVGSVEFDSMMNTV

Question: Which binding [1] does the source give for “STAT1 truncated mutant S3 (amino acids 318-488) in pEGFP-C1 (from UniProt P42224 318-488) (domain or fragment)” here?
Answer: The binding was “binds”.

Question: With “STAT1 truncated mutant S1 (amino acids 1-136) in pEGFP-C1 (from UniProt P42224 1-136) (domain or fragment)” as the molecule, how does the binding [1] read?
Answer: The binding was “binds”.

Question: For “Chromosome region maintenance 1 (CRM1) (from UniProt O14980 1-1071)”, which binding [2] is on record?
Answer: The binding was “binds”.

Question: What about the binding [3] of the same molecule?
Answer: The binding was “binds”.

Question: And the binding [4]?
Answer: The binding was “binds”.

Question: And the binding [5]?
Answer: The binding was “binds”.

Question: For “STAT1 truncated mutant S5 (amino acids 577-683) in pEGFP-C1 (from UniProt P42224 577-683) (domain or fragment)”, which binding [1] is on record?
Answer: Its binding is “binds”.

Question: What does the source list for “STAT1 (construct not told for the experiment) (from UniProt P42224 1-750)”?
Answer: binding [2]: binds; binding [6]: binds; binding [7]: binds

Question: How did the binding [8] turn out when STAT1-DDK (from UniProt P42224 1-750) was run?
Answer: The binding was “binds”.

B1: STAT1 (construct not told for the experiment), P42224 1-750 (protein)
chain: T5 chain
Question: For B1, which binding [9] is on record?
Answer: The binding was “binds”.
